No constants are given. Whether binding was seen depends on the method and setting. Binding seen in cells or lysates may run through a third protein. Some entries that bind do so weakly or less than the wild type.

Chains of the proteins cited; added tags and fusions are not shown. Residues count along the entry.
UniProt P04150: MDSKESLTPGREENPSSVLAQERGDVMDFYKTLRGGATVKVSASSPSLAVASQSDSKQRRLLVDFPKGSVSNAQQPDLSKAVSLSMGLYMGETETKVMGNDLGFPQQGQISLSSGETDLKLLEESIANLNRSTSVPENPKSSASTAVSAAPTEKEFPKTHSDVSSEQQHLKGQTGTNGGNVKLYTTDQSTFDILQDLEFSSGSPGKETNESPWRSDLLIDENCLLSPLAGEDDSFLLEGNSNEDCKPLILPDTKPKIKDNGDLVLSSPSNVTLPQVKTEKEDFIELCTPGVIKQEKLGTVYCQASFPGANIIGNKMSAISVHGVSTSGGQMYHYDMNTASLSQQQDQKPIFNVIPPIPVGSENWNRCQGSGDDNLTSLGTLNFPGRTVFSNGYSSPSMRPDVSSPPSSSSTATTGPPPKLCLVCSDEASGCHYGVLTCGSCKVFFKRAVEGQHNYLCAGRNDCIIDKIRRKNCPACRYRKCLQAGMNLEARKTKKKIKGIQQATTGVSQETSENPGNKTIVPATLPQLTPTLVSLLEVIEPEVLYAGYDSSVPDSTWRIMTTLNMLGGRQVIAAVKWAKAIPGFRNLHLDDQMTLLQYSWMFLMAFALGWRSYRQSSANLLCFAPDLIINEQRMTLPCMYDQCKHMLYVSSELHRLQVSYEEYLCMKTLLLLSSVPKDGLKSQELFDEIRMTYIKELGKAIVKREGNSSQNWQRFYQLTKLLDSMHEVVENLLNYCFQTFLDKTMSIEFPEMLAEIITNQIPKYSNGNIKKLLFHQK
UniProt P15941, residues 1182-1255: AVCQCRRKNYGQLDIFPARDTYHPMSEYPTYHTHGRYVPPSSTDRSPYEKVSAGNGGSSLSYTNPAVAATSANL

The assay has as its target glucocorticoid receptor alpha (human (endogenous in primary HBECs)) (UniProt P04150). As to the kind of experiment: co-IP; 200 μg protein from primary HBECs; IP with 2 μg anti-GRα or anti-MUC1-CT (IgG isotype control), protein G Sepharose 4B overnight at 4 °C, washed with NET buffer (50 mM Tris-HCl pH 8.0, 150 mM NaCl, 0.1% Nonidet P-40); western blot with anti-GRα or anti-MUC1-CT; cells stimulated with different concentrations of CSE, or with dexamethasone for 4 h. (In general: Immunoblotting shows a protein as a band on a membrane.)

Turning to “Mucin 1 cytoplasmic tail (from UniProt P15941 1182-1255)”, the binding result is reported as “binds”.

For the origin of these results see publication PMC6247701.
